# PubChem BioAssay AID1259424 | University of Nebraska Medical Center – 2018
# Test: 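Seek colon cancer survival genes behaving like KSR1, using a six-gene signature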 (primary screen)
# System: human HCT116 colon cancer cells
# Knock-down reagent: siRNA pool against human genes, 50 nM
# Measured: 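Six signature mRNAs by branched-DNA multiplex assay, scaled to two housekeeping genes and non-targeting median, log2; matched to mean KSR1 knockdown profile by Pearson correlation and euclidean distance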
# Reading the numbers: mean correlation with KSR1 profile: higher = expression change more like KSR1 knockdown; mean distance from KSR1 profile: higher = expression change less like KSR1 knockdown
# Shown is a random part of about 14,000 reagents tested. 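Higher correlation or smaller distance means closer resemblance to KSR1 loss; control wells, including KSR1 knockdowns, recur on many plates.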 Not all columns of the deposit are shown. Reagent sequences are not shown. The record does not give: the time to read-out.
gene,mean correlation with KSR1 profile,mean distance from KSR1 profile
DZIP1 (DAZ interacting zinc finger protein 1),-0.227,1.43
CHRNA5 (cholinergic receptor nicotinic alpha 5 subunit),0.78,0.821
SHFL (shiftless antiviral inhibitor of ribosomal frameshifting),-0.655,1.52
BANF1 (barrier to autointegration nuclear assembly factor 1),-0.353,3.42
CCDC106 (coiled-coil domain containing 106),-0.349,2.23
THOP1 (thimet oligopeptidase 1),-0.188,4.43
ZDHHC20 (zDHHC palmitoyltransferase 20),-0.331,2.58
ZNF106 (zinc finger protein 106),0.0459,1.46
PPP1R2 (protein phosphatase 1 regulatory inhibitor subunit 2),0.453,3.27
OR2L2 (olfactory receptor family 2 subfamily L member 2),-0.295,2.44
RAPSN (receptor associated protein of the synapse),0.19,2.57
SLC31A1,-0.303,3.39
TTC21B (tetratricopeptide repeat domain 21B),0.0745,2.77
ARHGAP9 (Rho GTPase activating protein 9),-0.558,3.77
DAB1 (DAB adaptor protein 1),-0.589,1.57
BLTP3B (bridge-like lipid transfer protein family member 3B),-0.0934,2.12
WNK1 (WNK lysine deficient protein kinase 1),0.268,2.26
MCAM (melanoma cell adhesion molecule),0.664,0.914
GET1 (guided entry of tail-anchored proteins factor 1),-0.0648,2.63
SLC35B3,0.354,1.68
RCAN1 (regulator of calcineurin 1),-0.432,4.25
FEM1A (fem-1 homolog A),-0.743,1.86
ADAM32 (ADAM metallopeptidase domain 32),0.23,2.55
MIS12 (MIS12 kinetochore complex component),-0.089,2.22
TMEM242 (transmembrane protein 242),-0.0723,1.59

The list goes on (4 carried over from the part before).
gene,mean correlation with KSR1 profile,mean distance from KSR1 profile
FEM1A (fem-1 homolog A),-0.743,1.86
ADAM32 (ADAM metallopeptidase domain 32),0.23,2.55
MIS12 (MIS12 kinetochore complex component),-0.089,2.22
TMEM242 (transmembrane protein 242),-0.0723,1.59
FKBP2 (FKBP prolyl isomerase 2),0.154,1.58
RPL24 (ribosomal protein L24),-0.549,1.96
MAGEB2 (MAGE family member B2),0.085,2.33
SALL3 (spalt like transcription factor 3),0.364,2.38
ACOT9 (acyl-CoA thioesterase 9),0.0816,1.95
SOX2 (SRY-box transcription factor 2),0.377,2.94
PTPMT1 (protein tyrosine phosphatase mitochondrial 1),-0.489,2.43
IL1B (interleukin 1 beta),0.74,2.86
ROBO1 (roundabout guidance receptor 1),-0.939,1.67
DPYSL2 (dihydropyrimidinase like 2),-0.269,2.18
TGIF2LY (TGFB induced factor homeobox 2 like Y-linked),0.234,1.54
DUS3L (dihydrouridine synthase 3 like),-0.529,8.6
ATP13A1 (ATPase 13A1),-0.367,2.61
TUT7 (terminal uridylyl transferase 7),0.529,2.32
MS4A12 (membrane spanning 4-domains A12),-0.428,3.25
FBXL20 (F-box and leucine rich repeat protein 20),-0.335,3.14
TMEM158 (transmembrane protein 158),-0.0803,1.71
PHF21A (PHD finger protein 21A),-0.524,1.42
NPHP3 (nephrocystin 3),-0.425,2.04
PELI1 (pellino E3 ubiquitin protein ligase 1),-0.235,3.28
DUX5 (double homeobox 5),0.396,3.26
ENDOG (endonuclease G),-0.475,3.76
SMAD7 (SMAD family member 7),0.728,0.85
ATP5F1A (ATP synthase F1 subunit alpha),0.0817,1.77
PLXNB3 (plexin B3),-0.63,2.22
"HARS2 (histidyl-tRNA synthetase 2, mitochondrial)",-0.762,2.23
CRACD (capping protein inhibiting regulator of actin dynamics),-0.476,2.49
PCDHA11 (protocadherin alpha 11),0.218,3.08
SALL4 (spalt like transcription factor 4),0.148,3.99
MSR1 (macrophage scavenger receptor 1),0.000578,1.48
FAM193B (family with sequence similarity 193 member B),-0.522,2.63
PLLP (plasmolipin),-0.802,3.83
SLC7A6,0.871,0.809
EPN3 (epsin 3),-0.393,2.15
RPL6 (ribosomal protein L6),0.234,4
CELA3B (chymotrypsin like elastase 3B),-0.405,2.63
STRIP2 (striatin interacting protein 2),-0.337,2.19
PIP5K1A (phosphatidylinositol-4-phosphate 5-kinase type 1 alpha),0.31,4.97
